{
  "source": "patent US20120219615A1",
  "about": "“Therapeutic Use of a TLR Agonist and Combination Therapy” (The Trustees of the University of Pennsylvania, priority 2010, published 2012)",
  "key": {"[1]": {"system": "monocytes (CD14+), pDC(CD123+), mDC(CD11c^+)", "experiment": "Intracellular cytokines in PBMC cell subsets by flow cytometry", "format": "cell-based, human", "settings": "0.8 μM, PBMCs from healthy donors (n=10)"}, "[2]": {"system": "human whole blood", "experiment": "Cytokines and chemokines in human whole blood activated in vitro (MAP)", "format": "cell-based", "settings": "whole blood from 6 normal human volunteers, 0.1, 0.3, 1.0 and 3.0 μM"}, "[3]": {"system": "OVCAR5 tumors", "experiment": "Leukocyte infiltration of OVCAR5 tumors by immunohistochemistry and flow cytometry", "format": "in vivo, NSG-HIS mice", "settings": "flow cytometry, end of study"}, "[4]": {"system": "monocytes (CD45^+CD14^+), myeloid DC, plasmacytoid DC", "experiment": "Activation markers on human monocytes, mDC and pDC in NSG-HIS mice", "format": "in vivo"}, "[5]": {"system": "human cytokines (IFNγ, TNFα, IL-12p40, IL-10)", "experiment": "Human cytokines in plasma of NSG-HIS mice (Luminex)", "format": "in vivo"}, "[6]": {"system": "G-CSF, MCP-1, MIP-1β, TNFα", "experiment": "Phase I clinical study: pharmacodynamic response, plasma immune mediators (MAP)", "format": "in vivo", "settings": "human", "method": "Study Procedures: VTX-2337 was administered weekly via subcutaneous injection on Days 1, 8, and 15 of a 28-day dosing cycle for two cycles. Using a modified Fibonacci dose-escalation scheme, successive cohorts received doses ranging from 0.1 mg/m^2 to 3.9 mg/m^2 of VTX-2337. Plasma samples were collected for pharmacokinetic analysis after the first dose of the first treatment cycle and for pharmacodynamic analyses after the first dose of the first and second treatment cycles.\nTo evaluate the pharmacodynamic (PD) response to VTX-2337, blood was collected at 0, 4, 8, 24 hours after subcutaneous administration of the first dose of the first cycle of VTX-2337. Plasma levels of immune mediators were quantified using the human multiple analyte panel (MAP), version 1.8 (Rules Based Medicine). […] Levels of mediators in plasma collected from 9 healthy volunteers are shown for comparison to the oncology population. […]"}, "[7]": {"system": "OVCAR5 tumors", "experiment": "Treatment of OVCAR5 tumor bearing NSG-HIS mice, tumor growth", "format": "in vivo", "settings": "PLD 50 mg/m^2 i.p. day 1, VTX-2337 0.5 mg/kg s.c. days 5, 7, 9, three 14-day cycles, vs vehicle/untreated control"}, "[8]": {"system": "peripheral blood mononuclear cells (PBMC)", "experiment": "Cytokine induction in human PBMC incubated 24 hours", "format": "cell-based", "settings": "PBMC from normal human volunteers (n=6), broad concentration range, dose-dependent"}},
  "note": "At least one compound was matched to its structure with a doubt left.",
  "data": [
    {"smiles": "CCCN(CCC)C(=O)C1=Cc2ccc(-c3ccc(C(=O)N4CCCC4)cc3)cc2N=C(N)C1", "note": "[VTX-2337, 2-amino-N,N-dipropyl-8-(4-(pyrrolidine-1-carbonyl)phenyl)-3H-benzo[b]azepine-4-carboxamide]", "values": [
      {"measurement": "intracellular levels of IL-12 and TNFα in monocytes and mDCs", "setting": "[1]", "value": "elevated"},
      {"measurement": "intracellular levels of IL-12 and TNFα in pDCs", "setting": "[1]", "value": "but not pDCs"},
      {"measurement": "immune mediators including TNFα, IL-12p40, IL-113 and MIP-1β", "setting": "[2]", "value": "dose dependent increases"},
      {"measurement": "tumor-infiltrating CD40^+ (activated) macrophages, pDC and mDC", "setting": "[3]", "value": "increase"},
      {"measurement": "tumor-infiltrating lymphocytes: total CD3^+ T cells, percent CD8^+ T cells, percent CD69^+ CD3^+CD8^+ T cells", "setting": "[3]; over baseline", "value": "significant increase"},
      {"measurement": "CD83, CD86 and MHC class II expression on monocytes, mDC and pDC", "setting": "[4]; 0.5 or 5 mg/kg s.c., spleen cells six hours later, vs control untreated mice", "value": "marked increase"},
      {"measurement": "activation of human CD14+ and CD11c+ cells in vivo", "setting": "[4]; NSG-HIS mice, within 6 hrs", "value": "dose-dependent activation"},
      {"measurement": "human Th1 cytokines in plasma", "setting": "[5]; NSG-HIS mice, VTX-2337: peaks within 6 hrs, subsiding within 24 hrs", "value": "dose-dependent upregulation"},
      {"measurement": "plasma IL-10", "setting": "[5]; phased schedule: PLD 50 mg/m^2 i.p., VTX-2337 0.5 mg/kg five days later, plasma 6 hours after VTX-2337", "value": "induced IL-10 up-regulation"},
      {"measurement": "plasma concentration of Th1 polarizing cytokines IFNγ, TNFα and IL-12p40", "setting": "[5]; single s.c. 0.5 or 5 mg/kg, six hours", "value": "dode-dependent increase"},
      {"measurement": "IL-10 plasma levels", "setting": "[5]; single s.c. 0.5 or 5 mg/kg, vs controls", "value": "Significant increase"},
      {"measurement": "pharmacodynamic response after one treatment cycle (Day 1 vs Day 29)", "setting": "[6]; plasma G-CSF and MIP-1β, first dose of first and second cycles", "value": "neither an augmentation nor broad desensitization of immune response"},
      {"measurement": "plasma biomarkers including G-CSF, MCP-1, MIP-1β and TNFα", "setting": "[6]; s.c., between 4 and 8 hours post dosing, returning to baseline by 24 hours", "value": "Dose dependent increases"},
      {"measurement": "tumor growth (rate)", "setting": "[7]", "value": "small effect in tumor growth rate"},
      {"measurement": "induction of TNFα, IFNγ and IL-12p70", "setting": "[8]", "value": "High levels"}
    ]}
  ]
}
